Consider two substances from paper PMC6733853.

Protein sequences, listed by entry. Tags and fused reporters are not part of them.
UniProt P35372: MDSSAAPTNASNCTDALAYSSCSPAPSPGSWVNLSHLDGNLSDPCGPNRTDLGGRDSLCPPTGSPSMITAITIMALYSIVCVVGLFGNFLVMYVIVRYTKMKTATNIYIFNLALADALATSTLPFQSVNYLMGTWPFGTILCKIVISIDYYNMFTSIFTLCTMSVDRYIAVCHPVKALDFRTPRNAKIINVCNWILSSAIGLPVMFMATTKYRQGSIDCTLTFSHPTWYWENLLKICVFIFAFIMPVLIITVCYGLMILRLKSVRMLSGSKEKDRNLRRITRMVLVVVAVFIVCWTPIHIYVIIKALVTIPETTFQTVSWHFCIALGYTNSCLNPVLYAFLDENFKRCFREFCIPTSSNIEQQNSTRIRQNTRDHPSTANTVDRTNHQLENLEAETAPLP
UniProt P49407: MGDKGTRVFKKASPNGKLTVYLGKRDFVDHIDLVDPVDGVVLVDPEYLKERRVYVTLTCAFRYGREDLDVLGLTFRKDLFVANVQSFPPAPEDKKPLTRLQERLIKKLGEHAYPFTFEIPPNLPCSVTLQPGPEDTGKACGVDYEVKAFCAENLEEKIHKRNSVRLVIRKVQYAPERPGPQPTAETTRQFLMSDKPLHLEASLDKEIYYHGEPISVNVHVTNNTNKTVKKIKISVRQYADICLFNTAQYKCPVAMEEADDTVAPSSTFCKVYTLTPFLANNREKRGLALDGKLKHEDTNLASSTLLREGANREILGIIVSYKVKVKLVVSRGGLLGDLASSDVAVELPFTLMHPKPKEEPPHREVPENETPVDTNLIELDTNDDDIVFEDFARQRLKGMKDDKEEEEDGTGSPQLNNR
UniProt P32121: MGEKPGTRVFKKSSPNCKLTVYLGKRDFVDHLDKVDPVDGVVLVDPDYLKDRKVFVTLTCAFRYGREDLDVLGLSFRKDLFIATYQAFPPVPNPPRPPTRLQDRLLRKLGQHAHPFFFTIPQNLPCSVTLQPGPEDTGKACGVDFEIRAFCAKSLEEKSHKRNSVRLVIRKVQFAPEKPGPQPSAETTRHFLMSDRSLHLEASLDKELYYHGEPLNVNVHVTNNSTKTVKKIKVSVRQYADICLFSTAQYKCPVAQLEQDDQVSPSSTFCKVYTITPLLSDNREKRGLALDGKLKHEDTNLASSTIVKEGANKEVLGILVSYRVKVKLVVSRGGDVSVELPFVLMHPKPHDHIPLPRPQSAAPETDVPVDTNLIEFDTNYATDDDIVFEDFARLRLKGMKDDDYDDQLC

No constants are given. Whether binding was seen depends on the method and setting. In cells and extracts the contact can be indirect. Some entries that bind do so weakly or less than the wild type.

The experiment has as its target sp-FLAG-MOR-GFP10 (human mu opioid receptor, MOR1) (human) (UniProt P35372). As to the kind of experiment: FRET or BRET; BRET2 in living HEK 293 cells co-transfected with sp-FLAG-hMOR-GFP10 and βarr1- or βarr2-RlucII (βarr2 also with GRK2, GRK5 or GRK6); agonists for 10 min in Tyrode's solution, read at 37 °C; ligands of cluster #3 (full agonists). For orientation: Bioluminescence resonance energy transfer reports proximity on the nanometre scale.

“β-arrestin1-RlucII (from UniProt P49407 1-418)”: the binding entry was “binds”.
For “β-arrestin2-RlucII (from UniProt P32121 1-409)” the value was “binds”.
